This is an account of results in the supplement of paper PMC7125110.

Sequences and labels used below:
B1: glmS ribozyme (parent)
chain: AUAAAAGCGCCAGAACUACAGAAAUGUAGUUGACGAGGAGGAGGUUUAUCGAAUUUUCGGCGGAUGCCUCCAAA

± gives the standard error. Many of these values have a large error.

The first series covers variants of B1. Briefly: self-cleavage kobs at 640 uM GlcN6P; higher = faster cleavage; RNA array. As to conditions: with glucosamine-6-phosphate. The essentials:
(§1)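 Tracking of barcoded ribozyme variants used a hybridised Cy3 probe at 37 °C, after in situ transcription by E. coli RNA polymerase on sequenced MiSeq chips. The flowed solution held 40 μM to 10 mM glucosamine-6-phosphate in HEPES/KCl/Mg(OAc)2 buffer, and imaging ran over ~14 h. kobs was taken from exponential decay fits of normalised per-tile medians, and kcat and KM from weighted Michaelis–Menten fits.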
Regarding U31C U55G G66U U69G C71G, the “self-cleavage kobs at 640 uM GlcN6P” value was 0.000163 ± 8.4e-05 s⁻¹. Consider A14U C50U C68U, for which the “self-cleavage kobs at 640 uM GlcN6P” value came out at 3.44e-05 ± 2.4e-05 s⁻¹. Consider A14U C50U C68A, for which the “self-cleavage kobs at 640 uM GlcN6P” value is 4.28e-05 ± 2.4e-05 s⁻¹. Same read-out and setting: then U46G C61G C71G, with 0.000145 ± 7.6e-05 s⁻¹. For the variant A53G C58A C68G, the “self-cleavage kobs at 640 uM GlcN6P” value worked out at 3.65e-05 ± 1.9e-05 s⁻¹. With A52G U69A, the “self-cleavage kobs at 640 uM GlcN6P” value amounted to 5.45e-05 ± 2.8e-05 s⁻¹. With G21U G38A U47C G63C C71G, the “self-cleavage kobs at 640 uM GlcN6P” value was 2.79e-05 ± 2.6e-05 s⁻¹. For A5U A64U, the “self-cleavage kobs at 640 uM GlcN6P” value was 1.91e-05 ± 1.6e-05 s⁻¹.

With A36G C70G, the “self-cleavage kobs at 640 uM GlcN6P” value worked out at 1.6e-05 ± 1.4e-05 s⁻¹. With C50G U56G G59U, the “self-cleavage kobs at 640 uM GlcN6P” value was determined as 5.46e-05 ± 3.4e-05 s⁻¹. In the case of A6U G51A C71A, the “self-cleavage kobs at 640 uM GlcN6P” value worked out at 2.79e-05 ± 2.5e-05 s⁻¹. On to U31G G32C G66A, for which the “self-cleavage kobs at 640 uM GlcN6P” value is 2.47e-05 ± 1.5e-05 s⁻¹. Still for that read-out and setting: then C10G C50G U55A, with 7.04e-05 ± 4.7e-05 s⁻¹; and U55G G59C C67G, with 6.08e-05 ± 3e-05 s⁻¹; and G7A U69A C71A, with 4.66e-05 ± 2.8e-05 s⁻¹. G51U A64C U69G: the “self-cleavage kobs at 640 uM GlcN6P” value worked out at 3.57e-05 ± 3.2e-05 s⁻¹. On to C67G C71G, for which the “self-cleavage kobs at 640 uM GlcN6P” value worked out at 1.7e-05 ± 1.5e-05 s⁻¹.

Take U69A C70A: the “self-cleavage kobs at 640 uM GlcN6P” value came out at 2.37e-05 ± 2.1e-05 s⁻¹. For the variant A53U G59U C70A, the “self-cleavage kobs at 640 uM GlcN6P” value came out at 3.77e-05 ± 3.1e-05 s⁻¹.

In another series the parent is B1. Briefly: self-cleavage kobs at 2500 uM GlcN6P; higher = faster cleavage; RNA array. As to conditions: with glucosamine-6-phosphate. The essentials:
as §1
Turning to U31C U55G G66U U69G C71G, the “self-cleavage kobs at 2500 uM GlcN6P” value came to 5.17e-05 ± 2.8e-05 s⁻¹. As for U31C U45A U65A C71A, the “self-cleavage kobs at 2500 uM GlcN6P” value was 4.65e-05 ± 2.8e-05 s⁻¹. A14U C50U C68U: the “self-cleavage kobs at 2500 uM GlcN6P” value amounted to 7.55e-05 ± 4e-05 s⁻¹. Consider G29U A48C, for which the “self-cleavage kobs at 2500 uM GlcN6P” value turned out to be 1.8e-05 ± 1.3e-05 s⁻¹. Turning to A36G G37A C61G C71G, the “self-cleavage kobs at 2500 uM GlcN6P” value turned out to be 3.77e-05 ± 1.9e-05 s⁻¹.

Regarding G13C G29A C61G C67U, the “self-cleavage kobs at 2500 uM GlcN6P” value is 2.54e-05 ± 1.9e-05 s⁻¹.

Consider G32U U65A, for which the “self-cleavage kobs at 2500 uM GlcN6P” value was found to be 3.33e-05 ± 1.8e-05 s⁻¹. With U31A G51A C68G, the “self-cleavage kobs at 2500 uM GlcN6P” value came to 4.93e-05 ± 2.6e-05 s⁻¹. In the case of C16U C61A C70U, the “self-cleavage kobs at 2500 uM GlcN6P” value was 2.98e-05 ± 2.9e-05 s⁻¹. As to A12G U31G A39C U55A, the “self-cleavage kobs at 2500 uM GlcN6P” value was 2.11e-05 ± 1.5e-05 s⁻¹. For C16A U54A U69G, the “self-cleavage kobs at 2500 uM GlcN6P” value is 4.35e-05 ± 2.8e-05 s⁻¹. Regarding C61G C67A, the “self-cleavage kobs at 2500 uM GlcN6P” value came to 2.4e-05 ± 1.6e-05 s⁻¹.

With A6U G51A C71A, the “self-cleavage kobs at 2500 uM GlcN6P” value worked out at 5.16e-05 ± 3.4e-05 s⁻¹.

Regarding C34G C50G G62A, the “self-cleavage kobs at 2500 uM GlcN6P” value worked out at 3.46e-05 ± 3e-05 s⁻¹. As for C16U C50G A53U U55A, the “self-cleavage kobs at 2500 uM GlcN6P” value came to 3.45e-05 ± 2.2e-05 s⁻¹. With G29A U49A A53G C68A, the “self-cleavage kobs at 2500 uM GlcN6P” value was determined as 2.8e-05 ± 2.8e-05 s⁻¹. In the case of U55G G59C C67G, the “self-cleavage kobs at 2500 uM GlcN6P” value turned out to be 3.51e-05 ± 3e-05 s⁻¹. For A36U G66U C68G C70U, the “self-cleavage kobs at 2500 uM GlcN6P” value stood at 0.00027 ± 0.00015 s⁻¹. In the case of G32U U57A, the “self-cleavage kobs at 2500 uM GlcN6P” value came out at 1.88e-05 ± 1.2e-05 s⁻¹. Take C11A G29A: the “self-cleavage kobs at 2500 uM GlcN6P” value stood at 1.97e-05 ± 1.3e-05 s⁻¹.

Consider C16A A52U A53U U57A, for which the “self-cleavage kobs at 2500 uM GlcN6P” value turned out to be 2.41e-05 ± 2.4e-05 s⁻¹. Consider A12U G32A U47C, for which the “self-cleavage kobs at 2500 uM GlcN6P” value was 3.78e-05 ± 2.1e-05 s⁻¹. C10A A14G A53C C70G: the “self-cleavage kobs at 2500 uM GlcN6P” value is 3.99e-05 ± 2.8e-05 s⁻¹. Consider A15C A53C C68U, for which the “self-cleavage kobs at 2500 uM GlcN6P” value stood at 3.24e-05 ± 1.7e-05 s⁻¹. In the case of C50G G59C G63A, the “self-cleavage kobs at 2500 uM GlcN6P” value is 0.00157 ± 0.00084 s⁻¹. Same read-out and setting: then C10G U30C C68G, with 3.15e-05 ± 2.1e-05 s⁻¹; and C50U U56G, with 1.48e-05 ± 1.3e-05 s⁻¹; and C8A A15G G37A C70G, with 2.5e-05 ± 2.4e-05 s⁻¹. Take C11U U47G G66C: the “self-cleavage kobs at 2500 uM GlcN6P” value amounted to 3.01e-05 ± 2e-05 s⁻¹. For C10U G63A C70U, the “self-cleavage kobs at 2500 uM GlcN6P” value turned out to be 2.92e-05 ± 2.6e-05 s⁻¹.

Consider A14G G29U A39U, for which the “self-cleavage kobs at 2500 uM GlcN6P” value amounted to 0.00455 ± 0.0025 s⁻¹. For the variant A53U G59U C70A, the “self-cleavage kobs at 2500 uM GlcN6P” value was determined as 5e-05 ± 3.3e-05 s⁻¹. Still for that read-out and setting: then U49A A52U U65A U69G, with 6.03e-05 ± 3.1e-05 s⁻¹. As to G35U C67G C68G, the “self-cleavage kobs at 2500 uM GlcN6P” value came to 4.04e-05 ± 2.1e-05 s⁻¹. Take A39C C71G: the “self-cleavage kobs at 2500 uM GlcN6P” value came to 1.37e-05 ± 1.3e-05 s⁻¹.

Variants of B1 are the subject of the next series. The experiment in a line: self-cleavage kobs at 40 uM GlcN6P; higher = faster cleavage; RNA array. The following applies: with glucosamine-6-phosphate. Put shortly:
as §1
Take A15G C58G C68U: the “self-cleavage kobs at 40 uM GlcN6P” value was 5.22e-05 ± 3.3e-05 s⁻¹.

Regarding C11U G35U U69A, the “self-cleavage kobs at 40 uM GlcN6P” value came out at 2.43e-05 ± 1.9e-05 s⁻¹. For the variant C11G A36G A52G C70A, the “self-cleavage kobs at 40 uM GlcN6P” value was found to be 3.6e-05 ± 1.9e-05 s⁻¹. As to U46G C61G C71G, the “self-cleavage kobs at 40 uM GlcN6P” value came out at 3.21e-05 ± 2.3e-05 s⁻¹. As to U31G A33U A48C U56G C67G C68A, the “self-cleavage kobs at 40 uM GlcN6P” value was 2.49e-05 ± 2e-05 s⁻¹. In the case of C8U G32U C50G, the “self-cleavage kobs at 40 uM GlcN6P” value was determined as 4.27e-05 ± 2.4e-05 s⁻¹. For A6G C11U U31C U56A U69G, the “self-cleavage kobs at 40 uM GlcN6P” value stood at 2.63e-05 ± 2.3e-05 s⁻¹.

In the case of A42G U46G U56C, the “self-cleavage kobs at 40 uM GlcN6P” value is 2.96e-05 ± 2.5e-05 s⁻¹. Regarding C11G C70G, the “self-cleavage kobs at 40 uM GlcN6P” value was determined as 1.74e-05 ± 1.5e-05 s⁻¹. As to G32U A33U C50G, the “self-cleavage kobs at 40 uM GlcN6P” value came to 3.53e-05 ± 2.2e-05 s⁻¹. In the case of C58U G60A C67U C68A, the “self-cleavage kobs at 40 uM GlcN6P” value was 3.41e-05 ± 2.9e-05 s⁻¹. With A6G U30G C50G A64U, the “self-cleavage kobs at 40 uM GlcN6P” value worked out at 4.35e-05 ± 2.8e-05 s⁻¹. As to C16A A39U, the “self-cleavage kobs at 40 uM GlcN6P” value came out at 1.42e-05 ± 9.9e-06 s⁻¹. On to A15G A52G C67U C71G, for which the “self-cleavage kobs at 40 uM GlcN6P” value was determined as 3.07e-05 ± 2.3e-05 s⁻¹. As for C8U C61A C68U, the “self-cleavage kobs at 40 uM GlcN6P” value was 3.32e-05 ± 2.7e-05 s⁻¹. For G26U U69A, the “self-cleavage kobs at 40 uM GlcN6P” value was found to be 3.92e-05 ± 2e-05 s⁻¹.

The variants in the next series derive from B1. The experiment in a line: self-cleavage kobs at 10000 uM GlcN6P; higher = faster cleavage; RNA array. The following applies: with glucosamine-6-phosphate. The essentials:
as §1
C11U G35U U69A: the “self-cleavage kobs at 10000 uM GlcN6P” value worked out at 3.07e-05 ± 1.6e-05 s⁻¹. Regarding C50U U56G, the “self-cleavage kobs at 10000 uM GlcN6P” value is 1.74e-05 ± 1.1e-05 s⁻¹.

As for A39C C71G, the “self-cleavage kobs at 10000 uM GlcN6P” value worked out at 1.4e-05 ± 1.1e-05 s⁻¹.

Variants of B1 are the subject of the next series. Briefly: self-cleavage kobs at 160 uM GlcN6P; higher = faster cleavage; RNA array. As to conditions: with glucosamine-6-phosphate. The essentials: as §1
As for A33C A39U, the “self-cleavage kobs at 160 uM GlcN6P” value was found to be 2.35e-05 ± 1.2e-05 s⁻¹.

For the variant A33C A39G, the “self-cleavage kobs at 160 uM GlcN6P” value amounted to 1.93e-05 ± 1e-05 s⁻¹.

In the case of G40C U45C, the “self-cleavage kobs at 160 uM GlcN6P” value was determined as 2.01e-05 ± 2e-05 s⁻¹. The same measure, in the same setting: then A52G U69A, with 6.3e-05 ± 3.4e-05 s⁻¹; and G38U U69G, with 0.000329 ± 0.00018 s⁻¹; and A14U G40A A53C C71A, with 2.27e-05 ± 1.7e-05 s⁻¹. As to G13A A64G, the “self-cleavage kobs at 160 uM GlcN6P” value was found to be 2.13e-05 ± 1.8e-05 s⁻¹. On the same count and under the same terms, then A33G A53C C70A, with 2.41e-05 ± 1.7e-05 s⁻¹; and C16G U30A U55G, with 2.97e-05 ± 2.3e-05 s⁻¹; and U31C U47A U56C, with 3e-05 ± 1.6e-05 s⁻¹. U57G C68A C70U: the “self-cleavage kobs at 160 uM GlcN6P” value worked out at 2.56e-05 ± 2e-05 s⁻¹. On the same count and under the same terms, then C10G C67G C68U, with 3.64e-05 ± 2.9e-05 s⁻¹; and C61G C67A, with 2.3e-05 ± 1.7e-05 s⁻¹. Take G29C U55G: the “self-cleavage kobs at 160 uM GlcN6P” value was 1.89e-05 ± 1.2e-05 s⁻¹.

Take C34G C50G G62A: the “self-cleavage kobs at 160 uM GlcN6P” value came out at 2.6e-05 ± 1.6e-05 s⁻¹. In the case of U31C G32C, the “self-cleavage kobs at 160 uM GlcN6P” value was found to be 4.69e-05 ± 2.4e-05 s⁻¹. For C11G C70G, the “self-cleavage kobs at 160 uM GlcN6P” value is 0.000175 ± 0.00011 s⁻¹. With U45A A64U, the “self-cleavage kobs at 160 uM GlcN6P” value amounted to 3.02e-05 ± 2e-05 s⁻¹.

With G13U A53G C61A C71G, the “self-cleavage kobs at 160 uM GlcN6P” value is 3.03e-05 ± 2.3e-05 s⁻¹. Take C10G U30C C68G: the “self-cleavage kobs at 160 uM GlcN6P” value was determined as 3.82e-05 ± 2.4e-05 s⁻¹.
